Results published in PMC8828718.
No constants are given. Whether binding was seen depends on the method and setting. Binding seen in cells or lysates may run through a third protein. Some binding calls cover weakened binding; strength is not graded here. Sequences can lack the tags named with a protein.

By UniProt entry, the sequences of proteins in these tests, tags left out.
UniProt P53350: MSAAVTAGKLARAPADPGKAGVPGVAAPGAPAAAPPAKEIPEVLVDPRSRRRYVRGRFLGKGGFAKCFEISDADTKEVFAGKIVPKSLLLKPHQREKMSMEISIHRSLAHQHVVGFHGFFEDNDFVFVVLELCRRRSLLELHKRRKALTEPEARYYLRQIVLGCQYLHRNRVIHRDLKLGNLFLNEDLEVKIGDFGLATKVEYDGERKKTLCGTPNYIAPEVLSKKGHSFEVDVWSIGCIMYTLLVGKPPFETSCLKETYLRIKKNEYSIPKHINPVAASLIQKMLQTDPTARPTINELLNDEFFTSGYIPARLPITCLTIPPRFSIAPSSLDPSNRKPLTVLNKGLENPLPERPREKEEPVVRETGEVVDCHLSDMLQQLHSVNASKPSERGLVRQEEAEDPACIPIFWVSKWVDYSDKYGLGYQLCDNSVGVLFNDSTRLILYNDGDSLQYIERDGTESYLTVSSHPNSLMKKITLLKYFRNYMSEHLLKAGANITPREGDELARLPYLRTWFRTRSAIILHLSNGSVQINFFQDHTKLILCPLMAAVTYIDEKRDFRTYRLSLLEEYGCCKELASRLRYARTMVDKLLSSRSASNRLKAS

Target: Myc-Plk1 (pRcCMV-Myc-Plk1) (UniProt P53350)
Assay: co-IP; immunoprecipitation from lysates of HEK293T cells transfected with Vrk3 and Plk1, as for the S2 cells

B1: Vrk3 (3xFLAG-EGFP fusion from pDEST-CMV-3xFLAG-EGFP) (enzyme, UniProt Q8IV63 1-474)
chain: MISFCPDCGKSIQAAFKFCPYCGNSLPVEEHVGSQTFVNPHVSSFQGSKRGLNSSFETSPKKVKWSSTVTSPRLSLFSDGDSSESEDTLSSSERSKGSGSRPPTPKSSPQKTRKSPQVTRGSPQKTSCSPQKTRQSPQTLKRSRVTTSLEALPTGTVLTDKSGRQWKLKSFQTRDNQGILYEAAPTSTLTCDSGPQKQKFSLKLDAKDGRLFNEQNFFQRAAKPLQVNKWKKLYSTPLLAIPTCMGFGVHQDKYRFLVLPSLGRSLQSALDVSPKHVLSERSVLQVACRLLDALEFLHENEYVHGNVTAENIFVDPEDQSQVTLAGYGFAFRYCPSGKHVAYVEGSRSPHEGDLEFISMDLHKGCGPSRRSDLQSLGYCMLKWLYGFLPWTNCLPNTEDIMKQKQKFVDKPGPFVGPCGHWIRPSETLQKYLKVVMALTYEEKPPYAMLRNNLEALLQDLRVSPYDPIGLPMVP
  binding: binds
